Publication PMC10442235
These are yes or no findings as the source states them, for the method shown. In cells and extracts the contact can be indirect. Here binding means that the protein was enriched with, or labelled near, the bait; the list need not be complete. Sequences can lack the tags named with a protein.

Key:
[1] = target: T1, ProtA-TEV-tagged scSyo1 (S. cerevisiae) (UniProt Q07395); test: affinity purification with mass spectrometry; split-tag tandem affinity purification (ProtA bait on IgG Sepharose, TEV elution, FLAG bait on anti-FLAG gel, FLAG peptide elution) from lysate of S. cerevisiae expressing the factors; NB-HEPES buffer; SDS-PAGE, Coomassie, bands identified by mass spectrometry; the complexes contain yeast 5S rRNA
T1 sequence: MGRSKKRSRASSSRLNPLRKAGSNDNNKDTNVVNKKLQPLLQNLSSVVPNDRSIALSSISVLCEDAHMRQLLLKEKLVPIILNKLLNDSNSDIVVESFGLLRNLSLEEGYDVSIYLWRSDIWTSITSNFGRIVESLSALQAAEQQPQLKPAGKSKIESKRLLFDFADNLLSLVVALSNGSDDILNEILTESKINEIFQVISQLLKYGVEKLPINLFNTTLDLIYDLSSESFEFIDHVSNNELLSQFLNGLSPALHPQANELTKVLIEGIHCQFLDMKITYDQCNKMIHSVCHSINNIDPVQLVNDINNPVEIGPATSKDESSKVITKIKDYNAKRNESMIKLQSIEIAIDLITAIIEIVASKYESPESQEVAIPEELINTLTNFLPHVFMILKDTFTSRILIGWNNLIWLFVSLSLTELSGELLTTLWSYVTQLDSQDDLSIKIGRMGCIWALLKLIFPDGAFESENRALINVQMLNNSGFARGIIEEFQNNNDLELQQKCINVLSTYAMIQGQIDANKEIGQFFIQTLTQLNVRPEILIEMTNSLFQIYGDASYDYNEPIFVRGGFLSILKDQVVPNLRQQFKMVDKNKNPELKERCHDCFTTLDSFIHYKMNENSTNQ

[2] = target: T2, pA-TEV-uL18 (yeast) (S. cerevisiae) (UniProt P26321); test: as above
T2 sequence: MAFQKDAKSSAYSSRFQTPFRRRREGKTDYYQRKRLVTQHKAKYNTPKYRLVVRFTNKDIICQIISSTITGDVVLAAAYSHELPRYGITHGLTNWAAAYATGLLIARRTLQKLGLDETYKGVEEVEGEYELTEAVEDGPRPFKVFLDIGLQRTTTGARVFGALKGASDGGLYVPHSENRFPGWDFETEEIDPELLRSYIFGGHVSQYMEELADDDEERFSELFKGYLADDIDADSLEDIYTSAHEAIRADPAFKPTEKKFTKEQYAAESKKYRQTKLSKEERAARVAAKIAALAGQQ

binding [1]: binds
binding [2]: binds
B1: FLAG-scRrs1 (protein, UniProt Q08746 1-203)
chain: MSAEDYKNLPVTVEKPIPVVYDLGNLAAFDSNVLDKNDLDSSNARREEKIKSLTRDNVQLLINQLLSLPMKTTTESVGGTGGQSSVMTLLQLPDPTTDLPREKPLPKAKAMTKWEKFAAKKGIKPKERAGKMIYDEASGEWVPKWGYKGANKKLDDQWLVEVDDKVKGTDNELIDPRTLNRAERKRLVKKNEKQQRRNMKNAL
